Here are results for seven molecules from publication doi:10.1101/495820.

The target in experiment [1] is Smc(3A-hng, K1151C)-HaloTag (B. subtilis) (UniProt P51834). The experiment in a line: cross-linking.
In experiment [2] the target is Smc(3A-hng, EQ, K1151C)-HaloTag (B. subtilis) (UniProt P51834). The experiment is described as follows: cross-linking.
For experiment [3], the target named is Smc(S152C, R558C, N634C)-HaloTag (B. subtilis) (UniProt P51834). The experiment in a line: cross-linking.
Experiment [4] has as its target T1, His-tagged N-terminal fragment of ScpA (ScpA-N) (B. subtilis) (UniProt P35154).
T1 sequence: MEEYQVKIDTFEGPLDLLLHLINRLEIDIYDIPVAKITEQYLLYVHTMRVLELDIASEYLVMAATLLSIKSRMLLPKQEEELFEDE
The experiment is described as follows: co-purification.

Experiment [5] deals with T1, His-tagged N-terminal fragment of ScpA (ScpA-N) (B. subtilis). The experiment in a line: SEC. (In general: In gel filtration, larger molecules generally elute earlier.)

No constants are given. Whether binding was seen depends on the method and setting. For part of these data: In cells and extracts the contact can be indirect. Some entries that bind do so weakly or less than the wild type. Sequences can lack the tags named with a protein.

B1: Smc(3A-hng, K1151C)-HaloTag (protein, UniProt P51834 1-1186)
chain: MFLKRLDVIGFKSFAERISVDFVKGVTAVVGPNGSGKSNITDAIRWVLGEQSARSLRGGKMEDIIFAGSDSRKRLNLAEVTLTLDNDDHFLPIDFHEVSVTRRVYRSGESEFLINNQPCRLKDIIDLFMDSGLGKEAFSIISQGKVEEILSSKAEDRRSIFEEAAGVLKYKTRKKKAENKLFETQDNLNRVEDILHELEGQVEPLKIQASIAKDYLEKKKELEHVEIALTAYDIEELHGKWSTLKEKVQMAKEEELAESSAISAKEAKIEDTRDKIQALDESVDELQQVLLVTSEELEKLEGRKEVLKERKKNAVQNQEQLEEAIVQFQQKETVLKEELSKQEAVFETLQAEVKQLRAQVKEKQQALSLHNENVEEKIEQLKSDYFELLNSQASIRNELQLLDDQMSQSAVTLQRLADNNEKHLQERHDISARKAACETEFARIEQEIHSQVGAYRDMQTKYEQKKRQYEKNESALYQAYQYVQQARSKKDMLETMQGDFSGFYQGVKEVLKAKERLGGIRGAVLELISTEQKYETAIEIALGASAQHVVTDDEQSARKAIQYLKQNSFGRATFLPLSVIRDRQLQSRDAETAARHSSFLGVASELVTFDPAYRSVIQNLLGTVLITEDLKGANELAKLLGHRYRIVTLEGDVVNPGGSMTGGAVAAANNSLLGRSRELEDVTKRLAEMEEKTALLEQEVKTLKHSIQDMEKKLADLRETGEGLRLKQQDVKGQLYELQVAEKNINTHLELYDQEKSALSESDEERKVRKRKLEEELSAVSEKMKQLEEDIDRLTKQKQTQSSTKESLSNELTELKIAAAKKEQACKGEEDNLARLKKELTETELALKEAKEDLSFLTSEMSSSTSGEEKLEEAAKHKLNDKTKTIELIALRRDQRIKLQHGLDTYERELKEMKRLYKQKTTLLKDEEVKLGRMEVELDNLLQYLREEYSLSFEGAKEKYQLETDPEEARKRVKLIKLAIEELGTVNLGSIDEFERVNERYKFLSEQKEDLTEAKNTLFQVIEEMDEEMTKRFNDTFVQIRSHFDQVFRSLFGGGRAELRLTDPNDLLHSGVEIIAQPPGKKLQNLNLLSGGERALTAIALLFSILKVRPVPFCVLDEVEAALDEANVFRFAQYLKKYSSDTQFIVITHRCGTMEEADVLYGVTMQESGVSKVISVKLEETKEFVQ
B1: in experiment [1], the binding result is listed as “binds”.

B2: Smc(3A-hng, EQ, K1151C)-HaloTag (protein, UniProt P51834 1-1186)
chain: MFLKRLDVIGFKSFAERISVDFVKGVTAVVGPNGSGKSNITDAIRWVLGEQSARSLRGGKMEDIIFAGSDSRKRLNLAEVTLTLDNDDHFLPIDFHEVSVTRRVYRSGESEFLINNQPCRLKDIIDLFMDSGLGKEAFSIISQGKVEEILSSKAEDRRSIFEEAAGVLKYKTRKKKAENKLFETQDNLNRVEDILHELEGQVEPLKIQASIAKDYLEKKKELEHVEIALTAYDIEELHGKWSTLKEKVQMAKEEELAESSAISAKEAKIEDTRDKIQALDESVDELQQVLLVTSEELEKLEGRKEVLKERKKNAVQNQEQLEEAIVQFQQKETVLKEELSKQEAVFETLQAEVKQLRAQVKEKQQALSLHNENVEEKIEQLKSDYFELLNSQASIRNELQLLDDQMSQSAVTLQRLADNNEKHLQERHDISARKAACETEFARIEQEIHSQVGAYRDMQTKYEQKKRQYEKNESALYQAYQYVQQARSKKDMLETMQGDFSGFYQGVKEVLKAKERLGGIRGAVLELISTEQKYETAIEIALGASAQHVVTDDEQSARKAIQYLKQNSFGRATFLPLSVIRDRQLQSRDAETAARHSSFLGVASELVTFDPAYRSVIQNLLGTVLITEDLKGANELAKLLGHRYRIVTLEGDVVNPGGSMTGGAVAAANNSLLGRSRELEDVTKRLAEMEEKTALLEQEVKTLKHSIQDMEKKLADLRETGEGLRLKQQDVKGQLYELQVAEKNINTHLELYDQEKSALSESDEERKVRKRKLEEELSAVSEKMKQLEEDIDRLTKQKQTQSSTKESLSNELTELKIAAAKKEQACKGEEDNLARLKKELTETELALKEAKEDLSFLTSEMSSSTSGEEKLEEAAKHKLNDKTKTIELIALRRDQRIKLQHGLDTYERELKEMKRLYKQKTTLLKDEEVKLGRMEVELDNLLQYLREEYSLSFEGAKEKYQLETDPEEARKRVKLIKLAIEELGTVNLGSIDEFERVNERYKFLSEQKEDLTEAKNTLFQVIEEMDEEMTKRFNDTFVQIRSHFDQVFRSLFGGGRAELRLTDPNDLLHSGVEIIAQPPGKKLQNLNLLSGGERALTAIALLFSILKVRPVPFCVLDQVEAALDEANVFRFAQYLKKYSSDTQFIVITHRCGTMEEADVLYGVTMQESGVSKVISVKLEETKEFVQ
As for B2, the binding entry in experiment [2] was “binds”.

B3: Smc(S152C, R558C, N634C)-HaloTag (protein, UniProt P51834 1-1186)
chain: MFLKRLDVIGFKSFAERISVDFVKGVTAVVGPNGSGKSNITDAIRWVLGEQSARSLRGGKMEDIIFAGSDSRKRLNLAEVTLTLDNDDHFLPIDFHEVSVTRRVYRSGESEFLINNQPCRLKDIIDLFMDSGLGKEAFSIISQGKVEEILSCKAEDRRSIFEEAAGVLKYKTRKKKAENKLFETQDNLNRVEDILHELEGQVEPLKIQASIAKDYLEKKKELEHVEIALTAYDIEELHGKWSTLKEKVQMAKEEELAESSAISAKEAKIEDTRDKIQALDESVDELQQVLLVTSEELEKLEGRKEVLKERKKNAVQNQEQLEEAIVQFQQKETVLKEELSKQEAVFETLQAEVKQLRAQVKEKQQALSLHNENVEEKIEQLKSDYFELLNSQASIRNELQLLDDQMSQSAVTLQRLADNNEKHLQERHDISARKAACETEFARIEQEIHSQVGAYRDMQTKYEQKKRQYEKNESALYQAYQYVQQARSKKDMLETMQGDFSGFYQGVKEVLKAKERLGGIRGAVLELISTEQKYETAIEIALGASAQHVVTDDEQSACKAIQYLKQNSFGRATFLPLSVIRDRQLQSRDAETAARHSSFLGVASELVTFDPAYRSVIQNLLGTVLITEDLKGACELAKLLGHRYRIVTLEGDVVNPGGSMTGGAVKKKNNSLLGRSRELEDVTKRLAEMEEKTALLEQEVKTLKHSIQDMEKKLADLRETGEGLRLKQQDVKGQLYELQVAEKNINTHLELYDQEKSALSESDEERKVRKRKLEEELSAVSEKMKQLEEDIDRLTKQKQTQSSTKESLSNELTELKIAAAKKEQACKGEEDNLARLKKELTETELALKEAKEDLSFLTSEMSSSTSGEEKLEEAAKHKLNDKTKTIELIALRRDQRIKLQHGLDTYERELKEMKRLYKQKTTLLKDEEVKLGRMEVELDNLLQYLREEYSLSFEGAKEKYQLETDPEEARKRVKLIKLAIEELGTVNLGSIDEFERVNERYKFLSEQKEDLTEAKNTLFQVIEEMDEEMTKRFNDTFVQIRSHFDQVFRSLFGGGRAELRLTDPNDLLHSGVEIIAQPPGKKLQNLNLLSGGERALTAIALLFSILKVRPVPFCVLDEVEAALDEANVFRFAQYLKKYSSDTQFIVITHRKGTMEEADVLYGVTMQESGVSKVISVKLEETKEFVQ
For B3, the binding result in experiment [3] is “binds”.

B4: B. subtilis Smc heads (SmcHd) (domain or fragment, UniProt P51834 1-219; P51834 983-1186)
chain: MFLKRLDVIGFKSFAERISVDFVKGVTAVVGPNGSGKSNITDAIRWVLGEQSARSLRGGKMEDIIFAGSDSRKRLNLAEVTLTLDNDDHFLPIDFHEVSVTRRVYRSGESEFLINNQPCRLKDIIDLFMDSGLGKEAFSIISQGKVEEILSSKAEDRRSIFEEAAGVLKYKTRKKKAENKLFETQDNLNRVEDILHELEGQVEPLKIQASIAKDYLEKKGPGLGTVNLGSIDEFERVNERYKFLSEQKEDLTEAKNTLFQVIEEMDEEMTKRFNDTFVQIRSHFDQVFRSLFGGGRAELRLTDPNDLLHSGVEIIAQPPGKKLQNLNLLSGGERALTAIALLFSILKVRPVPFCVLDEVEAALDEANVFRFAQYLKKYSSDTQFIVITHRKGTMEEADVLYGVTMQESGVSKVISVKLEETKEFVQ
With B4, the binding result in experiment [4] is “binds”.

B5: SmcHd(EQ) (domain or fragment, UniProt P51834 1-219; P51834 983-1186)
chain: MFLKRLDVIGFKSFAERISVDFVKGVTAVVGPNGSGKSNITDAIRWVLGEQSARSLRGGKMEDIIFAGSDSRKRLNLAEVTLTLDNDDHFLPIDFHEVSVTRRVYRSGESEFLINNQPCRLKDIIDLFMDSGLGKEAFSIISQGKVEEILSSKAEDRRSIFEEAAGVLKYKTRKKKAENKLFETQDNLNRVEDILHELEGQVEPLKIQASIAKDYLEKKGPGLGTVNLGSIDEFERVNERYKFLSEQKEDLTEAKNTLFQVIEEMDEEMTKRFNDTFVQIRSHFDQVFRSLFGGGRAELRLTDPNDLLHSGVEIIAQPPGKKLQNLNLLSGGERALTAIALLFSILKVRPVPFCVLDQVEAALDEANVFRFAQYLKKYSSDTQFIVITHRKGTMEEADVLYGVTMQESGVSKVISVKLEETKEFVQ
For the molecule B5, the binding entry in experiment [4] and in experiment [5] was “binds” in each case.

B6: SmcHd(3A-hd) (domain or fragment, UniProt P51834 1-219; P51834 983-1186)
chain: MFLKRLDVIGFKSFAERISVDFVKGVTAVVGPNGSGKSNITDAIRWVLGEQSARSLRGGAMEDIIFAGSDSRKRLNLAEVTLTLDNDDHFLPIDFHEVSVTRRVYRSGESEFLINNQPCALADIIDLFMDSGLGKEAFSIISQGKVEEILSSKAEDRRSIFEEAAGVLKYKTRKKKAENKLFETQDNLNRVEDILHELEGQVEPLKIQASIAKDYLEKKGPGLGTVNLGSIDEFERVNERYKFLSEQKEDLTEAKNTLFQVIEEMDEEMTKRFNDTFVQIRSHFDQVFRSLFGGGRAELRLTDPNDLLHSGVEIIAQPPGKKLQNLNLLSGGERALTAIALLFSILKVRPVPFCVLDEVEAALDEANVFRFAQYLKKYSSDTQFIVITHRKGTMEEADVLYGVTMQESGVSKVISVKLEETKEFVQ
With B6, the binding result in experiment [4] is reported as “binds”.

B7: SmcHd(EQ, 3A-hd) (domain or fragment, UniProt P51834 1-219; P51834 983-1186)
chain: MFLKRLDVIGFKSFAERISVDFVKGVTAVVGPNGSGKSNITDAIRWVLGEQSARSLRGGAMEDIIFAGSDSRKRLNLAEVTLTLDNDDHFLPIDFHEVSVTRRVYRSGESEFLINNQPCALADIIDLFMDSGLGKEAFSIISQGKVEEILSSKAEDRRSIFEEAAGVLKYKTRKKKAENKLFETQDNLNRVEDILHELEGQVEPLKIQASIAKDYLEKKGPGLGTVNLGSIDEFERVNERYKFLSEQKEDLTEAKNTLFQVIEEMDEEMTKRFNDTFVQIRSHFDQVFRSLFGGGRAELRLTDPNDLLHSGVEIIAQPPGKKLQNLNLLSGGERALTAIALLFSILKVRPVPFCVLDQVEAALDEANVFRFAQYLKKYSSDTQFIVITHRKGTMEEADVLYGVTMQESGVSKVISVKLEETKEFVQ
On to B7, for which the binding entry in experiment [4] and in experiment [5] was “binds” in each case.
